# Measurements as given in US20050239140A1 (Janssen / Centocor, published 2005).
# No constants are given. Whether binding was seen depends on the method and setting. Some entries that bind do so weakly or less than the wild type.
# T1: soluble murine Tissue Factor (extracellular domain) (murine) (UniProt P20352)
# T1 sequence (looked up): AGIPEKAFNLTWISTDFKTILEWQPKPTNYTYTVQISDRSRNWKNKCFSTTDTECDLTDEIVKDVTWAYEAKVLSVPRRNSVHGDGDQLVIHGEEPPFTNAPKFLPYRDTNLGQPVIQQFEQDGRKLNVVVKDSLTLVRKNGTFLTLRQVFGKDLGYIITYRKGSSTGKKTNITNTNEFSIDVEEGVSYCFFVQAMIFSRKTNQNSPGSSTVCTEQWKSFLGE
# B1: PHD103 Fab (Fab, V domains shown)
# VH: QVQLVQSGAEVKKPGESLKISCKGSGYSFSNSWIAWVRQMPGKGLEWMGGIIGPGHSYTKYSPSFQGQVTISADKSISTAYLQWSSLKASDTAMYYCARINMGYFDYWGQGTLVTVSS
# VL: DIELTQPPSVSVAPGQTARISCSGDSLGLKKFVSWYQQKPGQAPVLVIYDDSNRPSGIPERFSGSNSGNTATLTISGTQAEDEADYYCGTYDQTIGHDVVFGGGTKLTVLG
# B2: PHD127 Fab (Fab, V domains shown)
# VH: QVQLVQSGAEVKKPGESLKISCKGSYSFTNSWISWVRQMPGKGLEWMGIIDPDDSYTSYSPSFQGQVTISADKSISTAYLQWSSLKASDTAMYYCARGAGYGRMFGDVWGQGTLVTVSS
# VL: DIELTQPPSVSVAPGQTARISCSGDNLGSYYASWYQQKPGQAPVLVIYQDDNRPSGIPERFSGSNSGNTATLTISGTQAEDEADYYCGAYTYSTSWVFGGGTKLTVLG
# notes: HuCAL Fab; The assignment of 8 (VH) and 9 (VL) to PHD127 follows the order of listing
# What was measured:
# [1] = molecular target: T1, soluble murine Tissue Factor (extracellular domain) (murine); experiment: ELISA, purified Fab
# [2] = molecular target: T1, soluble murine Tissue Factor (extracellular domain) (murine); experiment: screening of Fab clones from the competition panning
Binder,binding [1],binding [2]
B1,binds,binds
B2,binds,binds
